No constants are given. Whether binding was seen depends on the method and setting.

Protein sequences, listed by entry. Tags and fused reporters are not part of them.
UniProt A0A0H3G0N3: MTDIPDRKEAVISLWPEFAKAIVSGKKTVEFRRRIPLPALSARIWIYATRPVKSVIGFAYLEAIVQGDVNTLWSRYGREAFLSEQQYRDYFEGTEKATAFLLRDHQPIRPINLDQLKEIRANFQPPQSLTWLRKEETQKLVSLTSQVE

This experiment addresses ASCH domain-containing protein from Zymomonas mobilis ZM4 (ZmASCH) (Zymomonas mobilis ZM4). The experiment is described as follows: SEC; elution profile of the size exclusion step of the recombinant purified protein (Supplementary Fig. 1); both purified.

Turning to “ASCH domain-containing protein from Zymomonas mobilis ZM4 (ZmASCH) (from UniProt A0A0H3G0N3 1-148)”, the binding entry is on record as “no binding”.

Source of the values: publication PMC5615036, “Crystal structure of an ASCH protein from Zymomonas mobilis and its ribonuclease activity specific for single-stranded RNA”.
